Experimental data as given in publication PMC3923683.
Results are given in words; binding and its absence hold for the method and conditions named. In cells and extracts the contact can be indirect. Some binding calls cover weakened binding; strength is not graded here. For some assays here: Sequences can lack the tags named with a protein.

Amino acid sequences for entries named in this document (tags omitted).
UniProt O15078: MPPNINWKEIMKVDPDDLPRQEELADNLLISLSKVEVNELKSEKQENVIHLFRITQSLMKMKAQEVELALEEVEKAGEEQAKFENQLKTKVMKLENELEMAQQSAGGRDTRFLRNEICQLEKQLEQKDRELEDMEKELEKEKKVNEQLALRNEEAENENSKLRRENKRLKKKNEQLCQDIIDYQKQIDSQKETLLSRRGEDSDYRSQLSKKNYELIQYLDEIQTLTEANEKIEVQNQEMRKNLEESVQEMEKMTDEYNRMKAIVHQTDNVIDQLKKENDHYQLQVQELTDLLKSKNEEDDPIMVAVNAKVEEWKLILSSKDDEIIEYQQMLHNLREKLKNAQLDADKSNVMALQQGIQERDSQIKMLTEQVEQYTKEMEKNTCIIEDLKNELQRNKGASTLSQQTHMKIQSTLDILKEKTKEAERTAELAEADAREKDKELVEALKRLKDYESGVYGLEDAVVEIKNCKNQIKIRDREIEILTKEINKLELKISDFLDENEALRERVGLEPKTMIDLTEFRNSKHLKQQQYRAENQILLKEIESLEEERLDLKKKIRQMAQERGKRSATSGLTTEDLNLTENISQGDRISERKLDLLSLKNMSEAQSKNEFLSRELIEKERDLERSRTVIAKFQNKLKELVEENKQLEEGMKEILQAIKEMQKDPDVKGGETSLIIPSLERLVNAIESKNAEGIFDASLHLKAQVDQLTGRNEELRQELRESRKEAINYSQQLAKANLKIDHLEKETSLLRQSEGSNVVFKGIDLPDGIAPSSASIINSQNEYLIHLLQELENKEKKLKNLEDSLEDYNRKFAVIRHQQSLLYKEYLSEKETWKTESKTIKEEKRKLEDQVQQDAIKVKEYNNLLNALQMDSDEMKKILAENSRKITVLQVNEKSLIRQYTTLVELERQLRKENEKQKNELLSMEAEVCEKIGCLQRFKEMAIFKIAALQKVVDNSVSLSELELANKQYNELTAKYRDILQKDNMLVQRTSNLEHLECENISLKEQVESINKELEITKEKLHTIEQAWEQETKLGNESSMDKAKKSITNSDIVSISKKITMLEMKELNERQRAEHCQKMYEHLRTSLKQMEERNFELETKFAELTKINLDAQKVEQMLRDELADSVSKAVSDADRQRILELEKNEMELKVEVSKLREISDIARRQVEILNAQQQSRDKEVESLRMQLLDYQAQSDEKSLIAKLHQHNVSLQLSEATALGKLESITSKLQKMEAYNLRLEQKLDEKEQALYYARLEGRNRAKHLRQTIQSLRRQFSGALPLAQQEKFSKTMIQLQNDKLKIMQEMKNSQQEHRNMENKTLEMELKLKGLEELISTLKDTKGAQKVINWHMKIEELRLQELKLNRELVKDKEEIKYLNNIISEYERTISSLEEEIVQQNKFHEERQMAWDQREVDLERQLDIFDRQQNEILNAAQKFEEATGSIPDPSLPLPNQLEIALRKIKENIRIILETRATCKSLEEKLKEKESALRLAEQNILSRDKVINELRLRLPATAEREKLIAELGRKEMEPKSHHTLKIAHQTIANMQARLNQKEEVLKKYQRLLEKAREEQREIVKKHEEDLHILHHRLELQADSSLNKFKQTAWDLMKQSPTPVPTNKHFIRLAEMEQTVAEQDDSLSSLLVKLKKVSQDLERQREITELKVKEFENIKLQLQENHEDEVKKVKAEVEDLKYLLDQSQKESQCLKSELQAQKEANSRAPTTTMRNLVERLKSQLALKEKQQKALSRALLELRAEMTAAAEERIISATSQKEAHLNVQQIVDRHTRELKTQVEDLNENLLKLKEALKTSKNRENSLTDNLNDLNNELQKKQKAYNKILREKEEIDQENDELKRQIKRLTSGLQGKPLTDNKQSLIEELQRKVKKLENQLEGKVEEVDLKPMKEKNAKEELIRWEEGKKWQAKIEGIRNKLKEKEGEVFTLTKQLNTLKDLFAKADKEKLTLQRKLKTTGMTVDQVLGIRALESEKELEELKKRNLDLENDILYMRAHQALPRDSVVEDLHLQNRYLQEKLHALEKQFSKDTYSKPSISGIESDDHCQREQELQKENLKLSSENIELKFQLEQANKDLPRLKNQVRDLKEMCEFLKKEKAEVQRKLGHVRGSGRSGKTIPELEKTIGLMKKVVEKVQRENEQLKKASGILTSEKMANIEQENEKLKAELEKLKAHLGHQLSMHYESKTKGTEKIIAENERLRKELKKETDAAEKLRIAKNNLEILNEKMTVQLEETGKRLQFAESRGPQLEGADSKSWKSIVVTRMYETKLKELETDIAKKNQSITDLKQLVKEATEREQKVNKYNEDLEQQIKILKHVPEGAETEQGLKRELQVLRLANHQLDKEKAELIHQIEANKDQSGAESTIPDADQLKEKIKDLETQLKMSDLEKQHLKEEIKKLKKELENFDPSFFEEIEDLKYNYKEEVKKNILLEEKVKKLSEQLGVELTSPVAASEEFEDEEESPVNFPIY
UniProt Q15154: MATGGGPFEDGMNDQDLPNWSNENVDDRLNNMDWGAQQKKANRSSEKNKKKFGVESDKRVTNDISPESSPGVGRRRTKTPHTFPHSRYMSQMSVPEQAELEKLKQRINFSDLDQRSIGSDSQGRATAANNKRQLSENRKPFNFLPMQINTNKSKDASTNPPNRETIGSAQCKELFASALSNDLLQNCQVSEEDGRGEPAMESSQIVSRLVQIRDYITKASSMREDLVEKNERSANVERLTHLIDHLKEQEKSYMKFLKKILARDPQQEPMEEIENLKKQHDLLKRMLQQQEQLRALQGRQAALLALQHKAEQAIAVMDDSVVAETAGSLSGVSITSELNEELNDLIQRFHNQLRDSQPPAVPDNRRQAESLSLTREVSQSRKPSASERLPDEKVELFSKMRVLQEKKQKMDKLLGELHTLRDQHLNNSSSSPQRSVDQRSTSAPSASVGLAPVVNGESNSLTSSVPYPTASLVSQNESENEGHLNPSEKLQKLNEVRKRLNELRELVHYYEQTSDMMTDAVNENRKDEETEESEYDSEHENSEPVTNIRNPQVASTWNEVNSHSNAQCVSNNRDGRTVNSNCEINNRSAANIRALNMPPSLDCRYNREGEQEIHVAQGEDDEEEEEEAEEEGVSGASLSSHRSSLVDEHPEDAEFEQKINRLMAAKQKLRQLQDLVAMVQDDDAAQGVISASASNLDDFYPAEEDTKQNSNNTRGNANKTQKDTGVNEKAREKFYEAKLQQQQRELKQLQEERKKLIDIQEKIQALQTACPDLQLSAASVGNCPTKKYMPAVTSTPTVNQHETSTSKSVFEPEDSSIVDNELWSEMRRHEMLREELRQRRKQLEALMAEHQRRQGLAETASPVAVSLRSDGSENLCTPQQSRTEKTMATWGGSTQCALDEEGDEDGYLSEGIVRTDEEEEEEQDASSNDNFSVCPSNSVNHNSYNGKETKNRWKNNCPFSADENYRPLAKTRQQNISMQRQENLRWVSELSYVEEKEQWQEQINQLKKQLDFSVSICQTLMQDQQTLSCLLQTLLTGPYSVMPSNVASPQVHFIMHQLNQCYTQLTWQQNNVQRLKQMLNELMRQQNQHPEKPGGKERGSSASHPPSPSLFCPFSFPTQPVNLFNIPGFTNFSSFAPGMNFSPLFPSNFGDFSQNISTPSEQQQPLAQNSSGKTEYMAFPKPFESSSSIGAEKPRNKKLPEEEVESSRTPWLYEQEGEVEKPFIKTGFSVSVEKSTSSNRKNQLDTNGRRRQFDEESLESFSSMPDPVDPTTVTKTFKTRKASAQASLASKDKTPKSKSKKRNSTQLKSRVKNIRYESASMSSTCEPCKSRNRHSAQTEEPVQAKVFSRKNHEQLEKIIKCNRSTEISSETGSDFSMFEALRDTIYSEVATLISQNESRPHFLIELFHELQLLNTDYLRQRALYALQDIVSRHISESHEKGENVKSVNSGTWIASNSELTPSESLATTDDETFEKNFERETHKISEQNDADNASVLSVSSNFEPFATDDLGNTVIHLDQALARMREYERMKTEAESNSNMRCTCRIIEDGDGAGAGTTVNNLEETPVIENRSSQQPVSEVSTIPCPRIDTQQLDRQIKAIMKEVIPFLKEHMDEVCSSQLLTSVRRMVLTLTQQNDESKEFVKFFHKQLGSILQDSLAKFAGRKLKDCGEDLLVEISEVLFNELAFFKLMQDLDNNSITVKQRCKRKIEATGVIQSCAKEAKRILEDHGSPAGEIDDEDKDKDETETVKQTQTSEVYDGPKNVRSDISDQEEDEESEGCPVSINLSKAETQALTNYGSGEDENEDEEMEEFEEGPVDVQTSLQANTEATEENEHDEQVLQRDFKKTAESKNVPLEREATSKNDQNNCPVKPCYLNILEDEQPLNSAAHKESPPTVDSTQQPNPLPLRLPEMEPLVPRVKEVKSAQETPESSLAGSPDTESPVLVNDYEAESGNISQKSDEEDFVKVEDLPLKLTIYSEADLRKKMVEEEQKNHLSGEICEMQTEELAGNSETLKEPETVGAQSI

T1: FLAG and S tagged AZI1, stably expressed in 293T cells (UniProt Q9UPN4)
T1 sequence: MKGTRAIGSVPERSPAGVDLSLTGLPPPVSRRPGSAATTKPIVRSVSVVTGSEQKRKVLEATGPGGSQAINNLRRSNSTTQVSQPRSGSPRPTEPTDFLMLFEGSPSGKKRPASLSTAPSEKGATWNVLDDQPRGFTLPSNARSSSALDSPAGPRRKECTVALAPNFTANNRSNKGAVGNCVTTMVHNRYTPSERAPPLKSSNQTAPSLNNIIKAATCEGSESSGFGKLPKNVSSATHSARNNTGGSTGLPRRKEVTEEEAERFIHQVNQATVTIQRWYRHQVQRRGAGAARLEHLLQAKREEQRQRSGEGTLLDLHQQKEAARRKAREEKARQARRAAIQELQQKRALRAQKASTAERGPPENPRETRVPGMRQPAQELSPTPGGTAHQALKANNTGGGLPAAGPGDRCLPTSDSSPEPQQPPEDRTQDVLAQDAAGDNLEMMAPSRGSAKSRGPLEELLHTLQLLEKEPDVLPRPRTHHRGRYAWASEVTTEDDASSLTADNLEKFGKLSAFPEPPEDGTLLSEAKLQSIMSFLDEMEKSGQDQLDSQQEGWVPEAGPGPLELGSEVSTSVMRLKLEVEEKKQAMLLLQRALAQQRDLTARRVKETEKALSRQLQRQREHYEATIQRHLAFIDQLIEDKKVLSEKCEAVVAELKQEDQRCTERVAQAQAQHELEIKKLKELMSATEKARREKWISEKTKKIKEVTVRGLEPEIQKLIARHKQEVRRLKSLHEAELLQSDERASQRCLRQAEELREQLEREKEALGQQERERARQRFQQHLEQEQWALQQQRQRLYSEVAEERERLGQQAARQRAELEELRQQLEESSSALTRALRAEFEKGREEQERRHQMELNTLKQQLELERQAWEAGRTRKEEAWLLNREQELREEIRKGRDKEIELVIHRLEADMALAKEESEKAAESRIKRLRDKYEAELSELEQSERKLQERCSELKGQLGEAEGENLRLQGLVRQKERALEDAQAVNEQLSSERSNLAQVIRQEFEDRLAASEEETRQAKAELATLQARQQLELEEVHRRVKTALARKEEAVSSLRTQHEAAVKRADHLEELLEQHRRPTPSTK

T2: FLAG and S tagged BBS4, transiently transfected (UniProt Q96RK4)
T2 sequence: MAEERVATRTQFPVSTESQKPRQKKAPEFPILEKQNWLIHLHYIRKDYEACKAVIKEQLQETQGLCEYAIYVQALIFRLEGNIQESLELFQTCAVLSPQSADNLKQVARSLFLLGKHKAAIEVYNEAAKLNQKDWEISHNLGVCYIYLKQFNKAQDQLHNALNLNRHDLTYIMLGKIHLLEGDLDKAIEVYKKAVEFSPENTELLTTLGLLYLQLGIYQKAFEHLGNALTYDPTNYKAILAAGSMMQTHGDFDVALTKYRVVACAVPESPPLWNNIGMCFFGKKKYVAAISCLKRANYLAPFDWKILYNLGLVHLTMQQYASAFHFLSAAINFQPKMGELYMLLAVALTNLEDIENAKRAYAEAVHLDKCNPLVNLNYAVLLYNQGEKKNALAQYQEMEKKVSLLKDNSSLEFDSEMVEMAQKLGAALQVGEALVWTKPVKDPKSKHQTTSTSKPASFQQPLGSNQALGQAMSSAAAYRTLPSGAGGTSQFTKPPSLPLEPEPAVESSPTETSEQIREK

T3: BBS4, endogenous in 293T cells (human (endogenous in 293T)) (UniProt Q96RK4)
T3 sequence: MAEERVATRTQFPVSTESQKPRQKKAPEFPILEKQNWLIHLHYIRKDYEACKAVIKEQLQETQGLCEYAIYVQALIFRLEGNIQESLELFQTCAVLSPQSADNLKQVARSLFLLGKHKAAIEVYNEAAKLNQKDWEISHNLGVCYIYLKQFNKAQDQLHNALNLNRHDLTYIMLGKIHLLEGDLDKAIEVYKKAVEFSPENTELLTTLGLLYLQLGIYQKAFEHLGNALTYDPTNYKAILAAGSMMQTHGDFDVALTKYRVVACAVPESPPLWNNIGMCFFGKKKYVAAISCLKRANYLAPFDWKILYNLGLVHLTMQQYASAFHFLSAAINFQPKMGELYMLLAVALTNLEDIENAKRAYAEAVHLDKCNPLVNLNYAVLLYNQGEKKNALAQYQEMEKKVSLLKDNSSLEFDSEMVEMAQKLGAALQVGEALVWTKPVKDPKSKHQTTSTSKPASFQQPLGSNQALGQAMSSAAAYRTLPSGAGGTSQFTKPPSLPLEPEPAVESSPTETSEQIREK


Experiments:
[1] = target: T1, FLAG and S tagged AZI1, stably expressed in 293T cells; experiment: co-IP; 293T cells stably expressing FLAG and S tagged AZI1 (parental cells as negative control); FLAG agarose beads; input and precipitate Western blotted
[2] = target: T2, FLAG and S tagged BBS4, transiently transfected; experiment: co-IP; 293T cells transiently transfected with individual FLAG and S tagged BBSome subunits; FLAG agarose beads; immunoblot with AZI1 and PCM1 antibody
[3] = target: T3, BBS4, endogenous in 293T cells (human (endogenous in 293T)); experiment: co-sedimentation; 293T cell lysates (control, AZI1 or PCM1 siRNA) separated by 10-40% sucrose gradient ultracentrifugation; fractions 7-19 immunoblotted for BBS proteins, AZI1 and PCM1

| Molecule | binding [1] | binding [2] | binding [3] |
| --- | --- | --- | --- |
| CEP290, endogenous in 293T cells (from UniProt O15078 1-2479) | binds | – | – |
| PCM1, endogenous in 293T cells (from UniProt Q15154 1-2024) | binds | binds | binds |
| BBS4, endogenous in 293T cells (protein, UniProt Q96RK4 1-519) MAEERVATRTQFPVSTESQKPRQKKAPEFPILEKQNWLIHLHYIRKDYEACKAVIKEQLQETQGLCEYAIYVQALIFRLEGNIQESLELFQTCAVLSPQSADNLKQVARSLFLLGKHKAAIEVYNEAAKLNQKDWEISHNLGVCYIYLKQFNKAQDQLHNALNLNRHDLTYIMLGKIHLLEGDLDKAIEVYKKAVEFSPENTELLTTLGLLYLQLGIYQKAFEHLGNALTYDPTNYKAILAAGSMMQTHGDFDVALTKYRVVACAVPESPPLWNNIGMCFFGKKKYVAAISCLKRANYLAPFDWKILYNLGLVHLTMQQYASAFHFLSAAINFQPKMGELYMLLAVALTNLEDIENAKRAYAEAVHLDKCNPLVNLNYAVLLYNQGEKKNALAQYQEMEKKVSLLKDNSSLEFDSEMVEMAQKLGAALQVGEALVWTKPVKDPKSKHQTTSTSKPASFQQPLGSNQALGQAMSSAAAYRTLPSGAGGTSQFTKPPSLPLEPEPAVESSPTETSEQIREK | binds | – | – |
